Experimental data: the supplement of paper PMC10338343
± gives the standard deviation. Only a part is listed here, and it is no random draw. Many entries were measured with a wide error. The list shows a part of the results.

Legend:
[1] = system: MILI (PIWIL2) piRISC loaded with L1MC piRNA (26 nt); experiment: pre-steady-state target cleavage rate (min^-1); higher = faster piRNA-guided slicing of the target; details: guide: L1MC piRNA 5'p-UAACUAAAUACUAUGCAAGCUGUAGG
Procedure, shortened: (§1)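 In this Cleave-'n-Seq assay, uncleaved targets were sequenced and normalised to depth and to weakly complementary targets. They came from a transcribed, DNA-blocked target RNA library […] mixed with 1 nM active affinity-purified piRISC carrying one synthetic guide, with or without 500 nM GTSF1 partner protein, in HEPES–potassium acetate buffer at 33 °C for 0–8 or 0–960 min. After three trials were pooled and k3 was capped at 0.0001 min^-1, the pre-steady-state cleavage rate was obtained from a burst-and-steady-state fit.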

[2] = system: MIWI (PIWIL1) piRISC loaded with L1MC piRNA (30 nt); experiment: as above; details: guide: L1MC piRNA 5'p-UAACUAAAUACUAUGCAAGCUGUAGGUCCU; auxiliary factor: none (no GTSF1)
Procedure, shortened: as §1

[3] = system: EfPiwi piRISC loaded with L1MC piRNA (26 nt); experiment: pre-steady-state target cleavage rate (min^-1); guide: L1MC piRNA 5'p-UAACUAAAUACUAUGCAAGCUGUAGG; MIWI and MILI are mouse PIWI proteins and EfPiwi is from a freshwater sponge; tags in brackets are library labels; higher = faster piRNA-guided slicing of the target
Procedure, shortened: as §1

[4] = auxiliary factor: none (no GTSF1)
[5] = auxiliary factor: 500 nM Ephydatia muelleri Gtsf1
[6] = auxiliary factor: none (no Gtsf1)

Sequence	pre-steady-state target cleavage rate [1, 4]	pre-steady-state target cleavage rate [2]	pre-steady-state target cleavage rate [3, 5]	pre-steady-state target cleavage rate [3, 6]	pre-steady-state target cleavage rate ([1]; auxiliary factor: 500 nM mouse GTSF1)
UCCUGGAUCAGCUUGCCAUAGUAUUUAGUUA	0.00101 ± 0.0065	0.00119 ± 0.0043	0.00658 ± 0.0025	0.00057 ± 0.011	
UCCUGGAUGAGCUUGCAUAUAUUUAGUUA	0.00196 ± 0.0041	0.00211 ± 0.0035	0.00241 ± 0.0045	0.000699 ± 0.0094	
UCCUGGAACAGCUACCAUAGUAUUUAGAAA	0.000738 ± 0.0079	0.000817 ± 0.0079	0.00138 ± 0.0029	0.000488 ± 0.012	
UCCUGGAUGUGCUUGCAUAGUAUAUAGAUA	0.000596 ± 0.01	0.00218 ± 0.0037	0.00119 ± 0.0047	0.000238 ± 0.041	
UCCUCCUACAGCUUGCAUUCAAUUUUCAAA	0.000937 ± 0.0049	0.000635 ± 0.0092	0.00141 ± 0.0052	0.000293 ± 0.014	
UCCUGGAUGUCGUUGCAUAGUAUAAUGUUA	0.00174 ± 0.0045	0.000738 ± 0.012	0.000309 ± 0.01	< 0.0001	
UCCUGGAUGUGCUUGCAUAGAUAUUAGUAA	0.000656 ± 0.01	0.000643 ± 0.012	0.000346 ± 0.0099	0.000659 ± 0.016	
UCCUGCUACAGCUUGCAUAGUAAUAAGUUA	0.00154 ± 0.0043	0.00163 ± 0.0041	0.0044 ± 0.002	0.000518 ± 0.01	
UCCUGGUACAGCUUGCAUAGAUUUUUCAAA	0.00148 ± 0.0071	0.000277 ± 0.012	0.00074 ± 0.0078	0.000349 ± 0.035	
UCCUGCUACAGCUUCCAUAGUAUUUAGUAA	0.000724 ± 0.0076	0.00117 ± 0.006	0.00255 ± 0.0016	0.000235 ± 0.021	
UCCUGGAUGUCCUUCCAUAGUAUUUAGAUA	0.000273 ± 0.015	0.00046 ± 0.01	0.000376 ± 0.009	0.000105 ± 0.076	
UCCUGGAUGUCGAUGCUUACUAUUUAGUUA	0.000437 ± 0.012	0.000679 ± 0.0098	0.000841 ± 0.0068	0.000134 ± 0.055	
UCCUGGAUGUCCUUCCAUAGUAUAUAGUUA	0.000278 ± 0.021	0.000215 ± 0.015	0.000213 ± 0.013	0.000127 ± 0.052	
UCCUGGUACAGCUUGCAUAGUAUAAAGAAA	0.000903 ± 0.008	0.00158 ± 0.0056	0.00202 ± 0.0038	0.000616 ± 0.012	
UCCUGGAUCAGCAACCAUAGUAUUUACAAA		0.000239 ± 0.019	0.000292 ± 0.012	0.000269 ± 0.027	0.0023 ± 0.0054
UCCUGGUACAGCUUGCAUAGUAUUAAGAAA	0.000901 ± 0.0066	0.00164 ± 0.0034	0.00387 ± 0.0017	0.000824 ± 0.012	
UCCUGGAACAGCUUGCAAUGUAUUUACAAA	0.000756 ± 0.0083	0.00257 ± 0.0033	0.000369 ± 0.0099	0.000239 ± 0.027	
UCCUGGAUCAGCUUGCAUGUAUUUAGUUA	0.00213 ± 0.0034	0.00263 ± 0.0027	0.0021 ± 0.0044	0.00118 ± 0.0071	
UCCUGGAUGUCGAUGCAUAGUAUUUAGUCUA	0.00123 ± 0.0056	0.00101 ± 0.0076	0.00144 ± 0.0045	0.000134 ± 0.053	
UCCUGGAUCAGCUUGCAUAGAUUUUACAAA	0.000971 ± 0.0059	0.000995 ± 0.0055	0.000671 ± 0.0054	0.000338 ± 0.021	
UCCUCCUACAGCUUCGAUAGUAUUUACAAA	0.000474 ± 0.0091	0.000241 ± 0.012	0.00182 ± 0.0031	0.000231 ± 0.02	
UCCUCCUACAGCUUGCAUAGUAAAAUCAAA	0.00115 ± 0.0053	0.000282 ± 0.012	0.0042 ± 0.0034	0.000478 ± 0.015	

Part of the list above, reformatted.
Sequence | pre-steady-state target cleavage rate [1, 4] | pre-steady-state target cleavage rate [2] | pre-steady-state target cleavage rate [3, 5] | pre-steady-state target cleavage rate [3, 6] | pre-steady-state target cleavage rate ([1]; auxiliary factor: 500 nM mouse GTSF1)
UCCUGGAUCAGCUUGCCAUAGUAUUUAGUUA | 0.00101 ± 0.0065 | 0.00119 ± 0.0043 | 0.00658 ± 0.0025 | 0.00057 ± 0.011 | 
UCCUGGAUGAGCUUGCAUAUAUUUAGUUA | 0.00196 ± 0.0041 | 0.00211 ± 0.0035 | 0.00241 ± 0.0045 | 0.000699 ± 0.0094 | 
UCCUCCUACAGCUUGCAUUCAAUUUUCAAA | 0.000937 ± 0.0049 | 0.000635 ± 0.0092 | 0.00141 ± 0.0052 | 0.000293 ± 0.014 | 
UCCUGGAUGUGCUUGCAUAGAUAUUAGUAA | 0.000656 ± 0.01 | 0.000643 ± 0.012 | 0.000346 ± 0.0099 | 0.000659 ± 0.016 | 
UCCUGCUACAGCUUGCAUAGUAAUAAGUUA | 0.00154 ± 0.0043 | 0.00163 ± 0.0041 | 0.0044 ± 0.002 | 0.000518 ± 0.01 | 
UCCUGCUACAGCUUCCAUAGUAUUUAGUAA | 0.000724 ± 0.0076 | 0.00117 ± 0.006 | 0.00255 ± 0.0016 | 0.000235 ± 0.021 | 
UCCUGGAUGUCCUUCCAUAGUAUAUAGUUA | 0.000278 ± 0.021 | 0.000215 ± 0.015 | 0.000213 ± 0.013 | 0.000127 ± 0.052 | 
UCCUGGAUCAGCAACCAUAGUAUUUACAAA |  | 0.000239 ± 0.019 | 0.000292 ± 0.012 | 0.000269 ± 0.027 | 0.0023 ± 0.0054
UCCUGGUACAGCUUGCAUAGUAUUAAGAAA | 0.000901 ± 0.0066 | 0.00164 ± 0.0034 | 0.00387 ± 0.0017 | 0.000824 ± 0.012 | 
UCCUGGAACAGCUUGCAAUGUAUUUACAAA | 0.000756 ± 0.0083 | 0.00257 ± 0.0033 | 0.000369 ± 0.0099 | 0.000239 ± 0.027 | 
UCCUGGAUCAGCUUGCAUGUAUUUAGUUA | 0.00213 ± 0.0034 | 0.00263 ± 0.0027 | 0.0021 ± 0.0044 | 0.00118 ± 0.0071 | 
UCCUGGAUGUCGAUGCAUAGUAUUUAGUCUA | 0.00123 ± 0.0056 | 0.00101 ± 0.0076 | 0.00144 ± 0.0045 | 0.000134 ± 0.053 | 
UCCUCCUACAGCUUCGAUAGUAUUUACAAA | 0.000474 ± 0.0091 | 0.000241 ± 0.012 | 0.00182 ± 0.0031 | 0.000231 ± 0.02 | 

(next part)

Sequence	pre-steady-state target cleavage rate [1, 4]	pre-steady-state target cleavage rate [2]	pre-steady-state target cleavage rate [3, 5]	pre-steady-state target cleavage rate [3, 6]	pre-steady-state target cleavage rate ([1]; auxiliary factor: 500 nM mouse GTSF1)
UCCUGCUACAGCUUGCAAAGUAUUUUCAAA	0.00145 ± 0.0036	0.00274 ± 0.0036	0.00145 ± 0.0034	0.000166 ± 0.02	
UCCUGGAUGUCGUUCCAUAGUAUAUAGUUA	0.000166 ± 0.036	0.000466 ± 0.016	0.000899 ± 0.0069	< 0.0001	
UCCUGGUACAGCUUCCAUAGUAUUUAGAAA	0.0013 ± 0.0055	0.00135 ± 0.004	0.00336 ± 0.0013	0.000443 ± 0.018	
UCCUGGAUGAGCUUGCAAUCUAUUUAGAAA	0.000105 ± 0.03	0.000257 ± 0.0085	0.000411 ± 0.01	0.000157 ± 0.048	
UCCUGGUACAGCUUGCUAAGUAUUUUCAAA	0.0011 ± 0.0059	0.000877 ± 0.008	0.000463 ± 0.011	0.000821 ± 0.014	
UCCUGGAUCAGCUUGCAUAGUAAAAAGAAA	0.00088 ± 0.0065	0.000399 ± 0.0076	0.000761 ± 0.0051	0.000248 ± 0.031	
UCCUGGUACAGCUUCCAUAGUAUUUUCAAA	0.00119 ± 0.0067	0.000845 ± 0.0078	0.00111 ± 0.0043	0.00018 ± 0.042	
UCCUCCUACAGCUUGGUUAGUAUUUUCAAA	0.0011 ± 0.0061	0.000899 ± 0.0065	0.00157 ± 0.004	0.000121 ± 0.022	
UCCUGGAUGUCGUUGCAUAGUAAUUAGAUA	0.000623 ± 0.0077	0.000717 ± 0.01	0.00169 ± 0.0047	0.000382 ± 0.018	
UCCUCCUACAGCUUGCAUUCUAUUUUCAAA	0.000467 ± 0.0095	0.000212 ± 0.015	0.000718 ± 0.0063	< 0.0001	
UCCUGGUACAGCUUGCAUACAAUUUAGUUA	0.00451 ± 0.0027	0.00258 ± 0.0027	0.00099 ± 0.0051	0.000306 ± 0.024	
UCCUGGAUGUGCUUGCUUAGUAUUUAGAAA	0.00179 ± 0.0032	0.00232 ± 0.0039	0.00127 ± 0.0056	0.000408 ± 0.021	
UCCUGGUACAGCUUGCAUAGAUAUUUCAAA	0.000809 ± 0.011	0.000213 ± 0.023	0.000749 ± 0.0066	0.000339 ± 0.028	
UCCUCCUACAGCUUGCAUAGUAUUUGUUA	0.00164 ± 0.0044	0.00166 ± 0.0043	0.00561 ± 0.0026	0.00103 ± 0.0068	
UCCUGGUACAGCUUGGUUAGUAUUUACAAA	0.00152 ± 0.0045	0.00107 ± 0.0063	0.000574 ± 0.0095	0.000741 ± 0.015	
UCCUGGUACAGCUUGCAUAGUAUUUUCAAA	0.00238 ± 0.0036	0.00187 ± 0.0039	0.00252 ± 0.003	0.00056 ± 0.018	
UCCUGGAUGUCGAAGCAUAGUAUUUAGCUUA	0.00109 ± 0.0045	0.000524 ± 0.011	0.000216 ± 0.016	0.00018 ± 0.036	
UCCUGGUACAGCUAGCAUAGUAUUUAGAAA	0.00184 ± 0.0037	0.00211 ± 0.0037	0.00319 ± 0.0022	0.000322 ± 0.018	
UCCUCCUACAGCUUGCAUACAUUUUUCAAA	0.000624 ± 0.0073	0.000633 ± 0.0099	0.00112 ± 0.0067	0.000196 ± 0.024	
UCCUCCUACAGCUUGCAUAGAUAUUAGAAA	0.000177 ± 0.016	0.000318 ± 0.011	0.00201 ± 0.0049	0.000226 ± 0.021	
UCCUGGAUCUGCUUCCAUAGUAUUUAGUUA	0.000804 ± 0.0068	0.000645 ± 0.0049	0.00326 ± 0.0022	0.000263 ± 0.03	
UCCUGGUACAGCUUGCAUAGUAAAAAGAAA	0.00109 ± 0.0064	0.000461 ± 0.009	0.00282 ± 0.0033	0.000494 ± 0.018	
